Data source: PubChem BioAssay AID504786 (Drosophila RNAi Screening Center, 2011)
Screen: 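Positive regulators of HIF-driven reporter output in Drosophila cells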 (primary screen). Cell system: Drosophila S2 cells with a stable HIF luciferase reporter. Reagents: long dsRNA against Drosophila genes, about 0.2 µg dsRNA per well of a 384-well plate. Timing: three days of knock-down, then 20 h of DFO before reading. Conditions: desferrioxamine (DFO) at 100 µM, an iron chelator that mimics hypoxia, for 20 h. Read-out: 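HIF reporter luminescence in cells given 100 µM DFO for 20 h, using the mouse ldh-a hypoxia-response element, scored as per-plate z-scores; higher means greater loss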. Scale: z-score: higher = stronger loss of HIF reporter signal.
The deposit covers about 21,000 reagents; below is a random part of those that have a named target and a result. 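Primary screen; positive scores mean lost reporter signal, so the sign may be inverted from the usual convention.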 Reagents against one gene are numbered here. Names joined by + are all predicted targets of the reagent. Not all columns of the deposit are shown. Reagent sequences are not shown.

Silencing of Rab3GAP1 #1 came out at: z-score, replicate 1 = -0.3.
Against Rab3GAP1 #2, the entry reads z-score, replicate 1 = -0.4.
Ugt36D1 showed z-score, replicate 1 = -0.2.
With knock-down of lqfR #1, the screen gave z-score, replicate 1 = 0.
With knock-down of lqfR #2, the screen gave z-score, replicate 1 = 1.3.
After knock-down of Kul, the record shows z-score, replicate 1 = -0.3.
GstD7 showed z-score, replicate 1 = -0.1.
After knock-down of CG15601 the results were z-score, replicate 1 = -0.5.
X11Lbeta #1 scored z-score, replicate 1 = -0.3.
Against X11Lbeta #2 the deposit lists z-score, replicate 1 = -0.2.
Depletion of hale came out at: z-score, replicate 1 = -0.3.
Silencing of CG42457 (retired record) + cpo #1 gave: z-score, replicate 1 = 0.
CG42457 (retired record) + cpo #2 gave z-score, replicate 1 = 2.8.
Against CG42457 (retired record) + cpo #3 the deposit lists z-score, replicate 1 = 2.
After knock-down of CG42457 (retired record) + cpo #4, the screen gave z-score, replicate 1 = -1.
Silencing of CG6912 gave: z-score, replicate 1 = 0.
After knock-down of Sf3b1, the record shows z-score, replicate 1 = 7.1.
After knock-down of CG30053, the screen gave z-score, replicate 1 = -0.4.
Knock-down of p130CAS + Dic61B gave: z-score, replicate 1 = -0.2.
For Cyp4c3, the entry reads z-score, replicate 1 = -0.3.
ND-20 gave z-score, replicate 1 = -0.2.
Ack scored z-score, replicate 1 = -0.4.
CG13315 showed z-score, replicate 1 = -0.3.
After knock-down of MESK2 + CG10494, the record shows z-score, replicate 1 = -0.3.
After knock-down of mri, the screen gave z-score, replicate 1 = -0.2.
CG43894 showed z-score, replicate 1 = 0.5.
CG30356 scored z-score, replicate 1 = -0.2.

3 entries already listed, sorted by “z-score, replicate 1”, lowest first.
CG13315 → z-score, replicate 1 = -0.3
MESK2 + CG10494 → z-score, replicate 1 = -0.3
mri → z-score, replicate 1 = -0.2

Next results follow:
CG9231 scored z-score, replicate 1 = -0.3.
For CG3587, the entry reads z-score, replicate 1 = -0.3.
Against dpr12 #1 the deposit lists z-score, replicate 1 = 0.1.
Against dpr12 #2, the values are z-score, replicate 1 = -0.1.
Against dpr12 #3, the entry reads z-score, replicate 1 = -0.2.
After knock-down of CG5618, the record shows z-score, replicate 1 = -0.2.
Against Mlp60A, the values are z-score, replicate 1 = 0.3.
For CG33796, the entry reads z-score, replicate 1 = -0.2.
Against trh #1, the values are z-score, replicate 1 = -0.4.
Depletion of trh #2 gave: z-score, replicate 1 = -0.2.
scpr-A + scpr-C showed z-score, replicate 1 = -0.4.
lush showed z-score, replicate 1 = -0.3.
With knock-down of ste24c + CG30461 #1, the screen gave z-score, replicate 1 = 0.
ste24c + CG30461 #2 showed z-score, replicate 1 = -0.4.
